Data: paper PMC3283592
No constants are given. Whether binding was seen depends on the method and setting. Binding seen in cells or lysates may run through a third protein. Some entries that bind do so weakly or less than the wild type.

Protein sequences, listed by entry. Tags and fused reporters are not part of them.
UniProt P21708: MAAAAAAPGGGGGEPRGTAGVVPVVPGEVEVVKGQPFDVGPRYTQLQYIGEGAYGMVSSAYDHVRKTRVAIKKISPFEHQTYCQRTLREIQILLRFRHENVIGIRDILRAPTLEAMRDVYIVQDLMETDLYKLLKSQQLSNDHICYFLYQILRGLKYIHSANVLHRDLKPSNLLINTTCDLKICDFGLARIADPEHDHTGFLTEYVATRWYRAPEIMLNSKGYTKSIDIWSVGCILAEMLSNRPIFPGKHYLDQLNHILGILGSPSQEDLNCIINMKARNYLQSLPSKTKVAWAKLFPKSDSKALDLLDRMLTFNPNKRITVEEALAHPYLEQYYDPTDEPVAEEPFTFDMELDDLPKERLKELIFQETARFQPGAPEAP
UniProt P63086: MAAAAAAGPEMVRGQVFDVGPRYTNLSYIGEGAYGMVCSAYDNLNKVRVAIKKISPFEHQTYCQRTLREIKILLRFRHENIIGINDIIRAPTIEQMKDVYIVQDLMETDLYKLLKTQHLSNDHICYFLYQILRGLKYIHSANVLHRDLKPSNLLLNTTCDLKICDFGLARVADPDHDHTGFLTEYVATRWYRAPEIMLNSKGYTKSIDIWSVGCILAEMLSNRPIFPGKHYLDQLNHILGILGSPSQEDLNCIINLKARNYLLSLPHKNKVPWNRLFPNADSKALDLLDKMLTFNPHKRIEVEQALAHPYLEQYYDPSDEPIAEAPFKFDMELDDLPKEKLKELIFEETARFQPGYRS

Key:
[1] = target: T1, caveolin-1 (rat (endogenous in A7r5)) (UniProt P41350); experiment: proximity ligation; Duolink in situ PLA kit (Olink) on fixed A7r5 cells with a caveolin-1 antibody and an ERK1/2 or phospho-ERK1/2 antibody; cells unstimulated or stimulated 10 minutes with DPBA or FCS
T1 sequence: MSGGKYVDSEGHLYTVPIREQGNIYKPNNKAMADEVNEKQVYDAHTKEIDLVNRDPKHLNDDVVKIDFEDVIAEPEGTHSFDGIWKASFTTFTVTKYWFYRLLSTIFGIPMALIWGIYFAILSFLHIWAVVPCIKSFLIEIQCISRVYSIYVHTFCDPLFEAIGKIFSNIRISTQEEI

[2] = target: T1, caveolin-1 (rat (endogenous in A7r5)); experiment: co-IP; A7r5 lysates (0.5% Nonidet-P40 lysis buffer) precipitated with rabbit polyclonal anti-caveolin-1 cross-linked to Protein G-dynabeads, 4°C, 3 hours; blots for phospho-ERK1/2 and total ERK1/2; cells unstimulated or stimulated with DPBA or FCS for 1-60 minutes

binding [1] | binding [2] | Substance
binds | binds | extracellular signal regulated kinase 1 (total ERK1) (from UniProt P21708 1-380) (enzyme)
binds | binds | extracellular signal regulated kinase 2 (total ERK2) (from UniProt P63086 1-358) (enzyme)
